# Results as given in article PMC4918949.
# By UniProt entry, the sequences of proteins in these tests, tags left out.
# UniProt Q05397: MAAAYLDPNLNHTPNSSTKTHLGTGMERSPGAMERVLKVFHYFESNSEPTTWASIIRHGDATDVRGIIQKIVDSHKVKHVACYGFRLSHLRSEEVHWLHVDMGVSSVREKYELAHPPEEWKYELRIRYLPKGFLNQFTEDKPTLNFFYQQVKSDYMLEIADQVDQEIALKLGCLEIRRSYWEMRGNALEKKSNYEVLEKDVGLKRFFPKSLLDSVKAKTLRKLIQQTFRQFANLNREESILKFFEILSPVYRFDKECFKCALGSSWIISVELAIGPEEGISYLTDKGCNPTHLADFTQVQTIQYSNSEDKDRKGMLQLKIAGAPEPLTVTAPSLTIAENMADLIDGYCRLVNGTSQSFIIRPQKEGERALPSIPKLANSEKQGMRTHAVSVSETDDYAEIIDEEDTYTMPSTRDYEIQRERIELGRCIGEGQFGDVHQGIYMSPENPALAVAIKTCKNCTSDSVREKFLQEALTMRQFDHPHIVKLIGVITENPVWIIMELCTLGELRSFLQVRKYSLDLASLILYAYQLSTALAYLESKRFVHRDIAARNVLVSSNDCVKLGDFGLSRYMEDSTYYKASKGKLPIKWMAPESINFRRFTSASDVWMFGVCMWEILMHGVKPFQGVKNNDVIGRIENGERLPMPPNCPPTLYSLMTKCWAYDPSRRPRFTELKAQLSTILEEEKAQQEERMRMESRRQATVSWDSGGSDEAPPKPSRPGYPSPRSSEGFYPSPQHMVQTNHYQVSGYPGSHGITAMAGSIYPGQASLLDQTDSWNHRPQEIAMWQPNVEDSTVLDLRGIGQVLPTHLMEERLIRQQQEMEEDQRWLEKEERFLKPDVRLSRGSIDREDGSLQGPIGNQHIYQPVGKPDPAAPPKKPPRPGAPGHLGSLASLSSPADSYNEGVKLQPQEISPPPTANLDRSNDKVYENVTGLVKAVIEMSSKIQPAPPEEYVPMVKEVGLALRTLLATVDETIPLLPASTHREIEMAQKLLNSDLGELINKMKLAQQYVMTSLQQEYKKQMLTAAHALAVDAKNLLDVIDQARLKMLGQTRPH
# UniProt P17931: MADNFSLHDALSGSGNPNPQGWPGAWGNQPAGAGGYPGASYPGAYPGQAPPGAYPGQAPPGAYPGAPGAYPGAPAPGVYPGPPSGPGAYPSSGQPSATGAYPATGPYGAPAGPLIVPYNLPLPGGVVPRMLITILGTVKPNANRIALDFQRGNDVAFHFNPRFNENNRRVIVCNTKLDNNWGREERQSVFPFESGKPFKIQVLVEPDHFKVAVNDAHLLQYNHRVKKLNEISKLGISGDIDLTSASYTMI
# No constants are given. Whether binding was seen depends on the method and setting. Binding seen in cells or lysates may run through a third protein. Some entries that bind do so weakly or less than the wild type.
# Molecular target: MUC16 (human (endogenous in colo-357)) (UniProt Q8WXI7)
# Assay: co-IP; endogenous proteins; 500 ug colo-357 lysate with 3 ug antibody or IgG overnight at 4°C, Protein A/G-Sepharose beads 2 h; IP buffer 50 mM Tris-HCl pH 7.4, 150 mM NaCl, 5 mM EDTA, 0.5% NP-40; immunoblot
row,Substance,binding
1,FAK (from UniProt Q05397 1-1052),binds
2,galectin-3 (from UniProt P17931 1-250),binds
